# Test results published in the supplement of paper PMC6411743.
# The chains behind the UniProt entries cited, without tags or fusion partners. Where a name states a change or a piece, a line headed by the entry shows the natural chain unless it says otherwise.
# UniProt Q14202: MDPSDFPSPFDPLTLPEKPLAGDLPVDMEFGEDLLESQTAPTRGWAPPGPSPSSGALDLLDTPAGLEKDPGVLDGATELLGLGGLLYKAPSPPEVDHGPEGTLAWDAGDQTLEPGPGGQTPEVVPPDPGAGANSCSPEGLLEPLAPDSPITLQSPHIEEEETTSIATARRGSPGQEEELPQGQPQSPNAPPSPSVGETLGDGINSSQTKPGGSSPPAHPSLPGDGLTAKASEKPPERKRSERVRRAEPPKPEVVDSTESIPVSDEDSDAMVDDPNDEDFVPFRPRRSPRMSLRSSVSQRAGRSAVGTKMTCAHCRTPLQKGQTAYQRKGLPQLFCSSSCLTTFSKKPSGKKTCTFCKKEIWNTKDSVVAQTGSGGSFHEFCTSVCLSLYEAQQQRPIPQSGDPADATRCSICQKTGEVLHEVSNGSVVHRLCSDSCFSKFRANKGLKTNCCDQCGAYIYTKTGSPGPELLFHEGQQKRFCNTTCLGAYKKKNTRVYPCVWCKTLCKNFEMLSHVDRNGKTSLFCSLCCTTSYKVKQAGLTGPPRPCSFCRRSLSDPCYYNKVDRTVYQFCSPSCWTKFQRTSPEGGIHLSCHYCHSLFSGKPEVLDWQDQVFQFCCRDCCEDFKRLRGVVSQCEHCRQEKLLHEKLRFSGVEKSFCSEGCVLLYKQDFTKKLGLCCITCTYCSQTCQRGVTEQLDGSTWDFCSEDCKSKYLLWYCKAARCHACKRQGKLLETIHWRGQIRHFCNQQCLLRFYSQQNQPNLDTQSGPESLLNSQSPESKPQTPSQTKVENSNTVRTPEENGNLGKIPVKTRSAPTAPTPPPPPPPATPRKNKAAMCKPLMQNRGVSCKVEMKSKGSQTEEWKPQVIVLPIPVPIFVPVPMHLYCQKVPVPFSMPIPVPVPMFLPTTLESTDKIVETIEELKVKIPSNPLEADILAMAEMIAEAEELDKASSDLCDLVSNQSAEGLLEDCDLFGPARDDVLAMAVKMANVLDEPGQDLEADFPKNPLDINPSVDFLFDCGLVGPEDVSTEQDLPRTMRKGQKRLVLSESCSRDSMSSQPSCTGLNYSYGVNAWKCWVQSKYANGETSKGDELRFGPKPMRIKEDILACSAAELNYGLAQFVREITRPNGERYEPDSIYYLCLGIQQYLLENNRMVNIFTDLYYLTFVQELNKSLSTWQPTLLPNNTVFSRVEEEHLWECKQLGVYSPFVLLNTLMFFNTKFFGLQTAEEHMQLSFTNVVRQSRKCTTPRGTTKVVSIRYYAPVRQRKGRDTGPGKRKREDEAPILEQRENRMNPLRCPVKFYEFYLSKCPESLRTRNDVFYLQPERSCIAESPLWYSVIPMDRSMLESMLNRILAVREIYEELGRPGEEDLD
# UniProt Q9Y6G5, whole entry: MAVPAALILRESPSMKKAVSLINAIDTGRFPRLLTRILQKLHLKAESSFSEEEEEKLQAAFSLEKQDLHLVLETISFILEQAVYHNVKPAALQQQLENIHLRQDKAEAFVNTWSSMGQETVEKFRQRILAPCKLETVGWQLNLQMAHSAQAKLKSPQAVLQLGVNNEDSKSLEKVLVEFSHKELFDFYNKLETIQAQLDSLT
# UniProt Q9BY27: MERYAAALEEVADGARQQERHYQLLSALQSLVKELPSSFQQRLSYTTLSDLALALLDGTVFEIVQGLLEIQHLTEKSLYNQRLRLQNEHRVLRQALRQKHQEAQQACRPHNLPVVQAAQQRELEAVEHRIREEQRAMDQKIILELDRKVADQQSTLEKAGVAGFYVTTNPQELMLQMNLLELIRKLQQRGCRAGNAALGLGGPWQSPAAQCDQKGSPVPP
# UniProt Q9GZV4: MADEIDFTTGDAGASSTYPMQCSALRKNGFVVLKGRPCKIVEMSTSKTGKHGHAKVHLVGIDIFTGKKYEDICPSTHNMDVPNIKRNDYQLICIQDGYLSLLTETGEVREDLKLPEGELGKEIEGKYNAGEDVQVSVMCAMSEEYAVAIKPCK
# UniProt A6NHR9: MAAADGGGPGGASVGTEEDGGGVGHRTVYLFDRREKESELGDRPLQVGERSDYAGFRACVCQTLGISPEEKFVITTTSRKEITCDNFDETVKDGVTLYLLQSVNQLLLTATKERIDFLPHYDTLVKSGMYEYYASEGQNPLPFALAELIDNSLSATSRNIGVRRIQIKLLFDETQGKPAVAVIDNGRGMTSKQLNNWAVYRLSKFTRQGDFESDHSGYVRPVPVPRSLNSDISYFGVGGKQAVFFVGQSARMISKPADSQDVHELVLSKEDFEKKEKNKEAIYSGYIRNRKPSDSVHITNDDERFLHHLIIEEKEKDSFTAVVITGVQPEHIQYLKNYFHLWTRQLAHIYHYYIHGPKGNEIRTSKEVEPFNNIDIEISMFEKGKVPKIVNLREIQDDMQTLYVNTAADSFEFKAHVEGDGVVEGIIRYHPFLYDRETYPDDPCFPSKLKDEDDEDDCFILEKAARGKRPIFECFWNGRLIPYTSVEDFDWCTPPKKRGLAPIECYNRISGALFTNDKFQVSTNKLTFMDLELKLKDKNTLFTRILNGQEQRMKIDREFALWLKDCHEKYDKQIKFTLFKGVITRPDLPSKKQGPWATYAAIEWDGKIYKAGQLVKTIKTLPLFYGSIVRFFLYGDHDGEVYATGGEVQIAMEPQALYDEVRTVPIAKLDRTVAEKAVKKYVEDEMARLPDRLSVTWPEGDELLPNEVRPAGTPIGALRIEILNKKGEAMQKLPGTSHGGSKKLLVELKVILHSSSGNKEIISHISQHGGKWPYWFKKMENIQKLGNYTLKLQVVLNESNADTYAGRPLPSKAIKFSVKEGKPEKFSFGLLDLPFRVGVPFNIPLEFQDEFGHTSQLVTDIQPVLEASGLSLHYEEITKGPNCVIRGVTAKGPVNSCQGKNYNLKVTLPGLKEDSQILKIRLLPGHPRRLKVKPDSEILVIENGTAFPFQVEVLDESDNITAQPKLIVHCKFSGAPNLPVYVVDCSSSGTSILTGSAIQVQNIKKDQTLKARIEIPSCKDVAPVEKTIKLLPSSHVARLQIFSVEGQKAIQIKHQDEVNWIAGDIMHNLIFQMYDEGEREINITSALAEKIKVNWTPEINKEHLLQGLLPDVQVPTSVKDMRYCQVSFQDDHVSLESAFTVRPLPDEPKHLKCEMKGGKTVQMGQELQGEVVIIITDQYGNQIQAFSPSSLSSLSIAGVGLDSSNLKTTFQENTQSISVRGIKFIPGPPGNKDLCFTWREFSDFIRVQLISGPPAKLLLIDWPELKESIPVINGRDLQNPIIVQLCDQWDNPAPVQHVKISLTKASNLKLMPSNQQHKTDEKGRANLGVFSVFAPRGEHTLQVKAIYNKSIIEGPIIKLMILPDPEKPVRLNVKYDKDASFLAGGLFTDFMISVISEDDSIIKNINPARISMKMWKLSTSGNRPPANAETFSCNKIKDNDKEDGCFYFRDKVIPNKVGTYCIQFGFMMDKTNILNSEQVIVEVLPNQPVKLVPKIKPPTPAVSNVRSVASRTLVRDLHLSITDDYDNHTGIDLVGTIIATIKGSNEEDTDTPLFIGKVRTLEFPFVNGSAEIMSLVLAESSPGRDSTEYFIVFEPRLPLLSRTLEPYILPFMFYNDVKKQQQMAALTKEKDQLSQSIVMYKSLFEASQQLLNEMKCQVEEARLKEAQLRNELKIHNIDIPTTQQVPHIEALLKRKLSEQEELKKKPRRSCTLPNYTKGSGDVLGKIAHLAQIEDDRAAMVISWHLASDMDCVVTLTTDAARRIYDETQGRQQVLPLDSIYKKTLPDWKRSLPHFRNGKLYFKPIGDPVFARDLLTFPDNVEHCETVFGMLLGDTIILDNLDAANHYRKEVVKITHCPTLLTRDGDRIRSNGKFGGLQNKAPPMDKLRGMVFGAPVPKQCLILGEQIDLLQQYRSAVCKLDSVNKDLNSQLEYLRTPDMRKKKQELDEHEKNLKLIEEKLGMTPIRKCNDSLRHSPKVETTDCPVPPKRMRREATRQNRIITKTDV
# UniProt Q8N4C6: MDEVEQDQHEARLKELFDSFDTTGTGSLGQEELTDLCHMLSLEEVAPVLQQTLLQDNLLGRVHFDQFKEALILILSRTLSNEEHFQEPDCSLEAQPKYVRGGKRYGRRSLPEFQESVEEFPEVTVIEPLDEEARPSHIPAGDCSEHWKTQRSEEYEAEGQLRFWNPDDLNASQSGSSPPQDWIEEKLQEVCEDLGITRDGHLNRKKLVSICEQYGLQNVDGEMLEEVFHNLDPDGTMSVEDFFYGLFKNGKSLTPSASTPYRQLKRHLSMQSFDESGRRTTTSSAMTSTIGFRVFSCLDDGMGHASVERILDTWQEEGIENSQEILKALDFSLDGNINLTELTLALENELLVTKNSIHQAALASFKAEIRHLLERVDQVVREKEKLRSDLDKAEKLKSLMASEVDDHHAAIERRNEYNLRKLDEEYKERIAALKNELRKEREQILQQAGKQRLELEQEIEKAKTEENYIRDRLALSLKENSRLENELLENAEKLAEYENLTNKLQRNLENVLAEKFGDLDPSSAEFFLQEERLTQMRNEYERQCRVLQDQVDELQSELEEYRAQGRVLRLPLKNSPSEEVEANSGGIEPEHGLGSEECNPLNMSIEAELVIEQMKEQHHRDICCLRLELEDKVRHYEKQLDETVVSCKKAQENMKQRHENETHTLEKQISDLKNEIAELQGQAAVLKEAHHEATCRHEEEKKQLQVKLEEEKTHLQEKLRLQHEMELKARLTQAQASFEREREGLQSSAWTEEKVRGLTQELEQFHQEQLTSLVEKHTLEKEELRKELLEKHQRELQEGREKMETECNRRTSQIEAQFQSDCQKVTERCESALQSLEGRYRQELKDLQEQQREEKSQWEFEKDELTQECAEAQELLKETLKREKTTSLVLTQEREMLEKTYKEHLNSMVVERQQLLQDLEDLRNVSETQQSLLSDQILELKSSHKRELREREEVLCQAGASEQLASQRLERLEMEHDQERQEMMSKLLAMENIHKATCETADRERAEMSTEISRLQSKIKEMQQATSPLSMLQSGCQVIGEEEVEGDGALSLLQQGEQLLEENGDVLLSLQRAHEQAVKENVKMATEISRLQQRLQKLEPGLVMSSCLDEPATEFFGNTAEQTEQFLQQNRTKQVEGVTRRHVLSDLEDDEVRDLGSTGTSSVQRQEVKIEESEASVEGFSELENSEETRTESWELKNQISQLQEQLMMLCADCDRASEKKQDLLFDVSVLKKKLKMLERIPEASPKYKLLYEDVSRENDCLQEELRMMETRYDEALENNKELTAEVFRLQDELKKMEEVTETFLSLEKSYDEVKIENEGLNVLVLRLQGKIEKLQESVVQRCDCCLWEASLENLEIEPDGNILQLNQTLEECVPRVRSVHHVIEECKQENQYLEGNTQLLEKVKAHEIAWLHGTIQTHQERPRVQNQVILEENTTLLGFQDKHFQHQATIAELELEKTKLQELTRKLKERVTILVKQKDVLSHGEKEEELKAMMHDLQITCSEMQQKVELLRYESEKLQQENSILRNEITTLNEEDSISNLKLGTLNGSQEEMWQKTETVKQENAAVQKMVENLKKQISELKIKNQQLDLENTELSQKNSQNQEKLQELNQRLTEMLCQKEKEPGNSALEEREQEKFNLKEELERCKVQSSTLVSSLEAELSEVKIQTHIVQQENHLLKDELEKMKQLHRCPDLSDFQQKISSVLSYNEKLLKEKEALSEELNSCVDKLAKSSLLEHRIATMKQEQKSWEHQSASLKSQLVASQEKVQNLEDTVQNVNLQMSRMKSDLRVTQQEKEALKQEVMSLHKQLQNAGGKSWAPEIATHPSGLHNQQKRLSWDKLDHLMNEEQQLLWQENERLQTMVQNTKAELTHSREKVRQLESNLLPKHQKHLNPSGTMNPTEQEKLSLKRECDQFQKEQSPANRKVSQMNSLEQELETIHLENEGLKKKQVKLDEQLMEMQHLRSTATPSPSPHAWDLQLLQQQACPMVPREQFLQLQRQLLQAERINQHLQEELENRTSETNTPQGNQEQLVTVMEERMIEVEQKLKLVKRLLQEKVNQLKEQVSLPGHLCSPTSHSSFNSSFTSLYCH
# UniProt Q9NX63: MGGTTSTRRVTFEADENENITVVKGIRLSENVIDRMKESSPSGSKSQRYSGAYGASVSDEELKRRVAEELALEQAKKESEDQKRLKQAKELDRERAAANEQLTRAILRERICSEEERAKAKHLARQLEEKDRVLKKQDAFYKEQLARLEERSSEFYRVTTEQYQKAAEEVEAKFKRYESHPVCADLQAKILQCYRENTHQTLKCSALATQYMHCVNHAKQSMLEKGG
# UniProt P78330: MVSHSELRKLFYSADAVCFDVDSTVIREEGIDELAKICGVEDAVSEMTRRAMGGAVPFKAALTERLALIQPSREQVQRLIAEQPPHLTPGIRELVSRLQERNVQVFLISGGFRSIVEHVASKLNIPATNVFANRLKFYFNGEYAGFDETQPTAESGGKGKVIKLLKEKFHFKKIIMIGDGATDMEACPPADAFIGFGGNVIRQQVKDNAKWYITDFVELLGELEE
# UniProt P84101: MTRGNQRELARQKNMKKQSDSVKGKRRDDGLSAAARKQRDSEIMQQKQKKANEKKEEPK
# ± gives the standard deviation of the averaged measurements. The entries are a selection whose mix differs from that of the whole data set. Most values lie at the level of the controls, where differences are scatter.
# Compound: Nc1ncnc2c1ncn2[C@@H]1O[C@H](COP(=O)(O)OP(=O)(O)NP(=O)(O)O)[C@@H](O)[C@H]1O [adenylyl imidodiphosphate]
# Experiment: NP40-soluble protein abundance relative to vehicle (solubility fold change) (ratio); higher = more soluble protein in presence of AMP-PNP
# Outline: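 Jurkat crude lysate (Dounce-homogenised) was treated with eight concentrations from 0.1 to 10 mM for 10 min at room temperature, then 3 min at 37 °C. It was solubilised with 0.8% NP40 and benzonase (60 min, 4 °C) and ultracentrifuged, and the supernatant was TMT-labelled for LC-MS/MS. Intensities were vsn-normalised, and the value is the fold change against the NP40-processed vehicle per replicate, from three independent experiments.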
Target,NP40-soluble protein abundance (concentration: 0.1mM),NP40-soluble protein abundance (concentration: 0.5mM)
A6NHB5 and related entries (UniProt Q14202),0.986 ± 0.016,0.97 ± 0.017
D6RC04 and related entries (UniProt Q9Y6G5),1.01 ± 0.048,1.02 ± 0.056
B5MCQ4 (UniProt Q9BY27),0.992 ± 0.046,1.01 ± 0.048
C9JLU1 and related entries (UniProt P52434),1.02 ± 0.055,0.982 ± 0.13
C9J4W5 and related entries (UniProt Q9GZV4),0.971 ± 0.017,0.853 ± 0.085
SMCHD1 (UniProt A6NHR9),1 ± 0.012,0.997 ± 0.037
C9J066 and related entries (UniProt Q8N4C6),1.03 ± 0.047,1.04 ± 0.067
B4DZG1 and related entries (UniProt Q9Y483),0.974 ± 0.025,0.959 ± 0.011
C9JRZ6 and related entries (UniProt Q9NX63),1 ± 0.021,1.02 ± 0.065
D6RAN4 and related entries (UniProt P32969),1.04 ± 0.032,1.02 ± 0.038
C9JBI3 and related entries (UniProt P78330),0.995 ± 0.023,0.977 ± 0.046
B1ANH0 and related entries (UniProt Q16774),1.003 ± 0.01,1.05 ± 0.026
B8ZZY7 and related entries (UniProt P84101),0.958 ± 0.05,0.998 ± 0.065
A8MU27 and related entries (UniProt P55854),0.9937 ± 0.0053,1.06 ± 0.06
C9K025 and related entries (UniProt P18077),1.0101 ± 0.00053,1.01 ± 0.031
C9JNW5 and related entries (UniProt P83731),1.07 ± 0.034,1 ± 0.035

# 2 records picked at random from the list so far:
Target,NP40-soluble protein abundance (concentration: 0.1mM),NP40-soluble protein abundance (concentration: 0.5mM)
C9JLU1 and related entries (UniProt P52434),1.02 ± 0.055,0.982 ± 0.13
C9K025 and related entries (UniProt P18077),1.0101 ± 0.00053,1.01 ± 0.031
